# Test results taken from PubChem BioAssay AID1671190 (National Center for Advancing Translational Sciences (NCATS), 2021).
# Chains of the proteins cited; added tags and fusions are not shown. Lines headed by an entry give the natural chain unless they say otherwise; changes in a name come on top.
# UniProt P18054: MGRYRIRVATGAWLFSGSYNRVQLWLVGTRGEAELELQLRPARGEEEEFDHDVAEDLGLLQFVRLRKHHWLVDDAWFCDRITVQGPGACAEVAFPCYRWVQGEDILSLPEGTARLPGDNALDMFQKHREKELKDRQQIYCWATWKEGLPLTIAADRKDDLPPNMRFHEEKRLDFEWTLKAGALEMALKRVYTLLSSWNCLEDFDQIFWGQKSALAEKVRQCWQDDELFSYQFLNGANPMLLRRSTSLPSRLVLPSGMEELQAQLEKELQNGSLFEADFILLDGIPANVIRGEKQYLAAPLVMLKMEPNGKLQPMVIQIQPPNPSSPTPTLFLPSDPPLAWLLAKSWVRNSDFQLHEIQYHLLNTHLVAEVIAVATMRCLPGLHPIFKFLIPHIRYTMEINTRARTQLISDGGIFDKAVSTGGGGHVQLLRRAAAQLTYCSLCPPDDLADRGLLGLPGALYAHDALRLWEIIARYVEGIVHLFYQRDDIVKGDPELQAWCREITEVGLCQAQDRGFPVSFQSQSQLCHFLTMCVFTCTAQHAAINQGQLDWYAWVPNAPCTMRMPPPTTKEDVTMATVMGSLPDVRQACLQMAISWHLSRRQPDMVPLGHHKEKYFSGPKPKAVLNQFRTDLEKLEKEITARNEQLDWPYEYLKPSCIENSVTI
# Screen size: about 580,000 compounds; about 6,100 (1.1%) were called active. The shares of active, inactive and inconclusive entries below differ from those in the screen. Calls follow the shape of the dose curve; as a rule, active = well fitted inhibition curve with a large enough effect; inconclusive = small, poorly fitted or top-dose-only effect, or another doubt; inactive = no such curve, though single readings can be large or run the other way. Where the call is inconclusive, the potency comes from a doubtful curve fit.
# Target: Polyunsaturated fatty acid lipoxygenase ALOX12 (Homo sapiens) (UniProt P18054)
# Test: Primary qHTS assay for inhibitors of human arachidonate 12S-lipoxygenase (ALOX12): Round 2
# Settings: purified 12hLO, xylenol orange hydroperoxide absorbance; series mostly up to 108 µM
# Procedure, shortened: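 Purified human 12hLO at 150 nM in 25 mM Hepes, 0.01% Triton X-100, pH 7.0, preincubated 15 min at room temperature with compound. Reaction started with 40 uM arachidonic acid, 30 min at room temperature. Hydroperoxide measured by Fe-xylenol orange, 573/405 nm absorbance ratio.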
# Potency is read from the fitted curve at half-maximal effect.
row,Compound,Potency
1,COc1ccc(CN2CCN(Cc3c[nH]c4ccccc34)CC2CCO)cc1C (configuration not stated),"inconclusive: 15.8 µM [inhibitor, full curve, poor fit]"
2,CCOc1cc(/C=C2\CN(C)C/C(=C\c3ccc(O)c(OCC)c3)C2=O)ccc1O,"inconclusive: 39.8 µM [inhibitor, partial curve]"
3,Cc1cc(=O)[nH]c(SCC(N)=O)c1C#N,"inconclusive: 28.2 µM [inhibitor, partial curve, poor fit]"
4,CCN1CCN(CCNC(=O)c2ccc(/C=C3/Sc4ccccc4N(Cc4cccc(C)c4)C3=O)cc2)CC1,"inconclusive: 50.1 µM [inhibitor, partial curve, poor fit]"
5,Cc1nn(C)c(C)c1Nc1ccc(N2C(=O)C3C4C=CC(C4)C3C2=O)cc1[N+](=O)[O-] (configuration not stated),inactive
6,CCN(CC)S(=O)(=O)c1cccc(NS(=O)(=O)c2ccc3ccccc3c2)c1,"inconclusive: 2 µM [inhibitor, full curve, poor fit]"
7,Cc1ccc(Nc2nc(-c3sc(N)nc3C)cs2)cc1,"inconclusive: 56.2 µM [inhibitor, partial curve, poor fit]"
8,Cc1ccc(NS(=O)(=O)c2ccc(-c3cnc(C)o3)cc2)c(C)c1,inactive
9,O=c1[nH]cnc2c1C(c1ccccc1)c1c(nc[nH]c1=O)O2,"inconclusive: 28.2 µM [inhibitor, single point]"
10,C=CCN1C(=O)/C(=C2/Sc3ccccc3N2CC)SC1=S,inactive
11,OCC(CO)(CO)NCc1ccc(-c2ccccc2)cc1,"inconclusive: 39.8 µM [inhibitor, single point]"
12,CC(C)(C)CN1CCN(CC#Cc2ccccc2)CC1CCO (configuration not stated),inactive
13,CC1=C(C(=O)c2ccccc2)C(c2ccc(OC(F)F)cc2)NC(=S)N1 (configuration not stated),"inconclusive: 44.7 µM [inhibitor, partial curve, poor fit]"
14,O=C1CCC[C@H]2[C@@H](Cc3ccccc3)[C@@H](NS(=O)(=O)c3ccc(F)cc3)CC[C@]23CCCN13,"inconclusive: 112 µM [inhibitor, single point]"
15,CC(NCc1cccs1)C(=O)NC1CCCCC1 (configuration not stated),inactive
16,COc1ccc(-c2c(-c3ccc(OCCN4CCOCC4)cc3O)n[nH]c2C)cc1,"inconclusive: 35.5 µM [inhibitor, partial curve, poor fit]"
17,Cc1[nH]c2ccccc2c1C(=O)c1cc(Cc2ccccc2)sc1N,"inconclusive: 56.2 µM [inhibitor, partial curve, poor fit]"
18,CC(OC(=O)Cn1[nH]c(=O)c2ccccc2c1=O)C(=O)Nc1ccc(F)cc1 (configuration not stated),"inconclusive: 11.2 µM [inhibitor, full curve, poor fit]"
19,Cc1ccc(-c2noc([C@@H]3C[C@@H](O)CN3Cc3ncc[nH]3)n2)cc1F,inactive
20,COc1ccc2c3c([nH]c2c1)[C@@H](CO)N(C(=O)c1ccccc1)CC31CN(C(=O)CC2CC2)C1,"inconclusive: 100 µM [inhibitor, partial curve, poor fit]"
21,Cc1ccc(-c2ccc3nnc(CNC(=O)C4(c5ccccc5)CC4)n3n2)cc1,"inconclusive: 11.2 µM [inhibitor, partial curve, poor fit]"

row,Compound,Potency
1,CCOc1ccc(NC(c2ccccn2)c2oc(CO)cc(=O)c2O)cc1 (configuration not stated),inactive
2,COc1cc(/C=N/O)c(Br)cc1OC(C)C,"inconclusive: 44.7 µM [inhibitor, partial curve, poor fit]"
3,Cc1ccc(SCc2nc(-c3ccncc3)no2)cc1,"inconclusive: 44.7 µM [inhibitor, partial curve, poor fit]"
4,CCCCC[C@@H]1C=C(C(=O)O)[C@H](c2cccc(C)c2)N1S(=O)(=O)c1ccc(C)cc1,"inconclusive: 112 µM [inhibitor, single point]"
5,CCc1ccc2[nH]c(=O)c(CN(CCCO)C(=O)NCc3ccccc3)cc2c1,"inconclusive: 112 µM [inhibitor, partial curve, poor fit]"
6,Cc1cc(C)c2oc(C(=O)N3CCN(c4cccc(Cl)c4)CC3)cc(=O)c2c1,"inconclusive: 141 µM [inhibitor, single point]"
7,CCOc1ncccc1C(=O)NCCCSc1ccccc1,"inconclusive: 17.8 µM [inhibitor, single point]"
8,Cc1[nH]nc(CCC(=O)N2CC[C@H](N3CCOCC3)[C@H](CCC(=O)O)C2)c1C,"inconclusive: 63.1 µM [inhibitor, partial curve, poor fit]"
9,C#CC1(O)CCN(C(C)(C)C)CC1C (configuration not stated),inactive
10,Cn1cc(-c2cc3cnc(Nc4ccc5c(c4)OCO5)cc3n2C)cn1,"inconclusive: 50.1 µM [inhibitor, partial curve, poor fit]"
11,CNC(=O)[C@@H]1CN(C(=O)CN2CCOCC2)C[C@H]1COC,"inconclusive: 39.8 µM [inhibitor, partial curve, poor fit]"
12,CN(C)/C=C/C(=O)c1nnn(C2CCCCC2)c1NC1CCCCC1,"inconclusive: 50.1 µM [inhibitor, partial curve, poor fit]"
13,CCOc1ccc(NS(=O)(=O)c2ccc(Cl)c(N=Nc3c(O)[nH]c(=S)[nH]c3=O)c2)cc1Br,"inconclusive: 28.2 µM [inhibitor, partial curve, poor fit]"
14,COc1ccc(CN2CCc3oc(C)c(C(=O)N4CCOCC4)c3C2)cc1,"inconclusive: 12.6 µM [inhibitor, full curve]"
15,Cc1ccc(-n2nc(-c3c(C)nc4scc(CC(=O)Nc5ccc(F)cc5)n4c3=O)cc2C)cc1,"inconclusive: 11.2 µM [inhibitor, full curve]"
16,Cc1ccccc1NC(=O)C(NS(=O)(=O)c1ccc2c(c1)c(=O)n(C)c(=O)n2C)c1ccccc1 (configuration not stated),inactive
17,O=C(O)c1cccc(-n2cccc2/C=C2/NC(=O)N(c3ccc(Cl)cc3)C2=O)c1,active: 7.94 µM
18,CCOc1ccc(CC(=O)NCCc2sc(-c3cccc(F)c3)nc2C)cc1,"inconclusive: 141 µM [inhibitor, partial curve, poor fit]"
19,O=C(NCc1ccc2c(c1)OCO2)C1CCN(C(=O)c2ncn3c2COC(c2ccccc2)C3)CC1 (configuration not stated),inactive
20,CCN(C(=O)COC(=O)/C=C/c1c(C)nn(Cc2ccc(C)cc2)c1C)C1CCS(=O)(=O)C1 (configuration not stated),"inconclusive: 100 µM [inhibitor, single point]"
21,Cc1ccc(OCCOc2cccc(Br)c2)c([N+](=O)[O-])n1,inactive

row,Compound,Potency
1,CCOc1cccc2sc(NC(=O)c3ccc(S(=O)(=O)N4CCCCC4)cc3)nc12,active: 44.7 µM
2,C=CCSc1nc2c(c(=O)[nH]c(=O)n2C)n1Cc1cccc(Br)c1,"inconclusive: 50.1 µM [inhibitor, partial curve, poor fit]"
3,COc1ccc(C2CC(c3ccccc3)=NN2c2ccc(N)cc2)cc1 (configuration not stated),"inconclusive: 50.1 µM [inhibitor, partial curve]"
4,O=C(C1=C(O)C(=O)N(Cc2ccccc2)C1c1ccco1)c1ccco1 (configuration not stated),"inconclusive: 50.1 µM [inhibitor, partial curve, poor fit]"
5,Fc1cccc(Cc2c(-c3cccc(Br)c3)nc3ccc(Cl)cn23)c1,"inconclusive: 25.1 µM [inhibitor, single point]"
6,COc1cccc(CNC2CCCc3ccccc32)c1OC (configuration not stated),"inconclusive: 0.355 µM [inhibitor, full curve, poor fit]"
7,CCSc1nc2sc3c(c2c2[n+]1CC(CBr)O2)CCCC3 (configuration not stated),"inconclusive: 126 µM [inhibitor, partial curve, poor fit]"
8,CC(=O)Nc1cccc(NC(=O)CSc2cn(CC(=O)N3CCCC3)c3ccccc23)c1,"inconclusive: 112 µM [inhibitor, partial curve, poor fit]"
9,NC(=S)n1[nH]c(-c2ccc([N+](=O)[O-])cc2)c(N=Nc2ccc(O)cc2)c1=O,"inconclusive: 2.82 µM [inhibitor, full curve, poor fit]"
10,COc1ccc(NC(=O)c2cc3c(=O)n(C)c4cc(Cl)ccc4c3s2)cc1Cl,"inconclusive: 126 µM [inhibitor, single point]"
11,O=C(COC(=O)CSc1ccccc1)NC1CCS(=O)(=O)C1 (configuration not stated),"inconclusive: 141 µM [inhibitor, single point]"
12,COc1ccc(C2=NN(C(=O)c3cccc([N+](=O)[O-])c3)C(c3cccc([N+](=O)[O-])c3)C2)cc1 (configuration not stated),inactive
13,NS(=O)(=O)c1ccc(N/N=C/c2ccc(F)cc2)c([N+](=O)[O-])c1,inactive
14,O=[N+]([O-])c1ccc(N/N=C/c2ccccc2Br)cc1,"inconclusive: 39.8 µM [inhibitor, partial curve, poor fit]"
15,Cc1ccc(O)c(C(=O)c2cnn(C(=O)c3cccc(S(=O)(=O)N(C)C)c3)c2)c1,"inconclusive: 126 µM [inhibitor, single point]"
16,Cc1nn(-c2ccccn2)c2c1C(c1ccsc1)C1=C(CCCC1=O)N2 (configuration not stated),"inconclusive: 35.5 µM [inhibitor, partial curve, poor fit]"
17,COc1ccc2oc(C)c(C(=O)OC(C)C)c2c1,"inconclusive: 0.224 µM [inhibitor, full curve, poor fit]"
18,O=c1[nH]c2cc3ccccc3cc2nc1-c1nnnn1C1CCCC1,"inconclusive: 112 µM [inhibitor, single point]"
19,CCc1ccc(NC2CC(=O)N(CCc3ccc(OC)c(OC)c3)C2=O)cc1 (configuration not stated),inactive
20,CC1CCN(S(=O)(=O)c2ccc3c(ccc(=O)n3CC(=O)NCc3ccccc3)c2)CC1,"inconclusive: 141 µM [inhibitor, single point]"

# Part of the list above in order of molar mass, smallest number first:
row,Compound,Potency
14,O=[N+]([O-])c1ccc(N/N=C/c2ccccc2Br)cc1,"inconclusive: 39.8 µM [inhibitor, partial curve, poor fit]"
9,NC(=S)n1[nH]c(-c2ccc([N+](=O)[O-])cc2)c(N=Nc2ccc(O)cc2)c1=O,"inconclusive: 2.82 µM [inhibitor, full curve, poor fit]"
20,CC1CCN(S(=O)(=O)c2ccc3c(ccc(=O)n3CC(=O)NCc3ccccc3)c2)CC1,"inconclusive: 141 µM [inhibitor, single point]"
4,CCN1CCN(CCNC(=O)c2ccc(/C=C3/Sc4ccccc4N(Cc4cccc(C)c4)C3=O)cc2)CC1,"inconclusive: 50.1 µM [inhibitor, partial curve, poor fit]"
